Test results taken from PMC7113585.

Molecular target: T1, Tp0751 (E115-P237), lipocalin fold only (Treponema pallidum subsp. pallidum) (UniProt O83732)
T1 sequence: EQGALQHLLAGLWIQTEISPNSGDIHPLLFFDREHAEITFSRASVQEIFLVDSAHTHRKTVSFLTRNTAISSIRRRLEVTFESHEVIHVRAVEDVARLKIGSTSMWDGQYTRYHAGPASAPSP
Experiment: affinity purification with mass spectrometry; His-tagged Tp0751 (E115-P237), 150 ug, immobilised on cobalt chelate; hCMEC/d3 membrane and membrane-associated proteins as prey, 16 h at 4°C, TBS with 0.5% CHAPS; eluted with 290 mM imidazole; in-solution digestion, LC-MS/MS; unconjugated column as control; only the target purified

B1: Stomatin (erythrocyte band 7 integral membrane protein), endogenous in hCMEC/d3 cells (protein, UniProt P27105 1-288)
chain: MAEKRHTRDSEAQRLPDSFKDSPSKGLGPCGWILVAFSFLFTVITFPISIWMCIKIIKEYERAIIFRLGRILQGGAKGPGLFFILPCTDSFIKVDMRTISFDIPPQEILTKDSVTISVDGVVYYRVQNATLAVANITNADSATRLLAQTTLRNVLGTKNLSQILSDREEIAHNMQSTLDDATDAWGIKVERVEIKDVKLPVQLQRAMAAEAEASREARAKVIAAEGEMNASRALKEASMVITESPAALQLRYLQTLTTIAAEKNSTIVFPLPIDMLQGIIGAKHSHLG
binding: binds

No constants are given. Whether binding was seen depends on the method and setting. In cells and extracts the contact can be indirect. A yes stands for co-enrichment or nearness to the bait. Other partners may have been found.
